Entries after “also recorded” stand apart in the source; their conditions may differ. For some assays here: Part of at least one peptide drawing is inferred or uncertain, most often the ends. For some assays here: At least one compound was matched to its structure with a doubt left. Marks after values point to notes of the source that are not given here.
Key:
[1] = tested on: male normotensive Wistar rats; test: Modulation of IOP in healthy rats; format: in vivo, rat; conditions: for % of IOP reduction (Δ) / IOP after single dose: 80 μg/20 μL topical; for % of IOP reduction (Δ): after subtraction of control effect; for IOP after single dose: n=8
[2] = tested on: glaucomatous male Wistar rats; format: in vivo, rat
Protocol: The effectiveness of the PnPP-19 was first evaluated by measuring the changes in IOP of glaucomatous male Wistar rats (180-220 g, 7 to 10 weeks old, n=6). Glaucoma was induced in the right eye by the injection of 30 μL hyaluronic acid (HA) (10 mg/mL) into the anterior chamber through the clear cornea once per week for 3 weeks on the same calendar day and at the same time. Evaluation of the IOP was performed using a TonoPen (Tono-PenVet, Reichert). To perform the measurements, unsedated animals were topically anesthetized by the instillation of 0.5% proxymetacaine hydrochloride. Three IOP readings (with SE less than 5%) were taken for each eye. The average of these three readings was considered the corresponding value of the IOP. Electroretinogram (ERG) was recorded before and after the glaucoma induction. Eyes were enucleated and corneas and retinas were prepared for histology. The groups of treatment were defined as Healthy or non-glaucomatous—left eye, where HA was not applied; Glaucomatous, Non-treated—right eye, where HA was applied, treated with control (vehicle, saline);
Glaucomatous, treated with PnPP-19—right eye, where HA was applied, treated with PnPP-19 at 80 μg/20 μL (one eye drop) in the eye; IOP lowering with conventional eye drop was maintained during 24 hours after the treatment.
The effects of PnPP-19 on rat's vision at the end of the HA glaucomatous model was analyzed by ERG to evaluate if the peptide impacts the visual acuity. Dark-adapted ERG records were performed before the treatment and 72 hours after the PnPP-19 treatment instillation. It was observed differences in the pattern of ERG curves comparing healthy eyes with glaucomatous eyes. There was no difference between the glaucomatous non-treated group with PnPP-19 treated groups (data not shown).

[3] = tested on: male Wistar rats with retinal ischemia; test: Ischemic retina model, study 1 (post-treatment); format: in vivo, rat
[4] = tested on: male Wistar rats with retinal ischemia; test: Ischemic retina model, study 2 (pre-treatment or prevention); format: in vivo, rat
Protocol: The potential neuroprotective effect of PnPP-19 in the retina was investigated with an animal model of ischemic injury. For this purpose, male Wistar rats were treated with PnPP-19 either before or after induction of ischemia (80 μg in 20 μl (one eye drop) once a day administration for seven days).
Male Wistar rats (180-200 g) were anesthetized intraperitoneally with ketamine hydrochloride 90 mg/kg and xylazine hydrochloride 10.0 mg/kg and the retinas were made ischemic according to the protocols of Hughes (HUGHES, W. F. Quantitation of ischemic damage in the rat retina. Exp Eye Res, 53(5): 573-82, 1991), and of Louzada-Junior et al. (Louzada-Junior, P., Dias, J. J., Santos, W. F., Lachat, J. J., Bradford, H. F., Coutinho-Netto, J. Glutamate Release in Experimental Ischaemia of the Retina: An Approach Using Microdialysis. J Neurochem, 59(1):358-63, 1992). IOP was elevated by cannulating the eye anterior chamber, with a sterile 27-gauge needle attached to a manometer/pump connected to an air reservoir (HUGHES, W. F. Quantitation of ischemic damage in the rat retina. Exp Eye Res, 53(5): 573-82, 1991) elevating the IOP to 155 mmHg for 40 min evoking ischemia (indicated by whitening of the eye fundus as blood flow is interrupted).
After the ischemic period, the IOP was allowed to return to normal levels for 45 min (reperfusion period, during which the fundus color returns to normal). The left retina of each animal was subjected to the experimental condition, ischemia and/or reperfusion, while the right retina served as a nonischemic control.
Study 2 (pre-treatment or prevention)—80 μg of BZ371 in 20 μl of saline solution (one drop) was instilled for 7 days at the same time, before the induction of retinal ischemia in the animals. The number sample was equal to 6 animals/eyes per group.
After induction of retinal ocular ischemia in all groups, retinal function was assessed by electroretinogram (ERG) 1 day and 7 days after induction of ischemia. ERGs were carried out in compliance with the International Society for Clinical Electrophysiology (ISCEV) guidelines. ERG was performed 0 and 72 hours after the PnPP-19 administration (80 μg/eye). ERGs were recorded using an Espion e2 electrophysiology system and a Ganzfeld LED stimulator (ColorDome™ desktop Ganzfeld, Diagnosys LLC, Littleton, Mass.). All ERGs were recorded after 12 h of dark adaptation. The pupils were dilated using one drop of 0.5% tropicamide (Mydriacyl; Alcon, São Paulo, Brazil) and the animals were anesthetized by intramuscular injection (ketamine hydrochloride 90 mg/kg and xylazine hydrochloride 10.0 mg/kg) before the recording of ERG. The eyes were topically anesthetized with 0.5% proxymetacaine hydrochloride (Anestalcon; Alcon, São Paulo, Brazil) immediately before the ERG recordings. Bipolar contact lenses electrode were placed on both corneas and a needle electrode was inserted into the back. Impedance was set to less than 5 kΩ at 25 Hz in each electrode. The dark-adapted (scotopic) ERG protocol was recorded according to a modified ISCEV protocol and presented in the following sequence: rod (0.01 cd.s/m2) and combined response (3 cd.s/m2) with 30 s interstimulus interval (ISI), with a duration of 4 ms.
After day 7 the animals were euthanized and the eyes were collected for histological analysis. Immediately after sacrifice, eyes were enucleated and fixed in Davidson solution (two parts of 10% neutral phosphate-buffered formalin, three parts of 95% ethanol, one part of glacial acetic acid and three parts of ultrapure water). Samples were included in paraffin and 4-μm-thick sections of the in the sagittal plane, to allow dorsal-to ventral observation of the cornea and retina were stained with hematoxylin and eosin and were analyzed in unmyelinated areas under light microscopy using a microscope (Zeiss®, Model Axio Imager M2).
We measured different layer thicknesses to quantify the degree of cell loss to measure the ischemic damage in the rat retina. […]

[5] = tested on: nitrite (NO level) in eye tissues; test: Nitrite in eye tissue by Griess methodology (NO level); format: in vivo, rat; conditions: 80 μg/eye topical; 2 hours; mean +/− SEM, n=6
healthy subjects = test: Phase 1 clinical trial, safety, tolerability and IOP; format: in vivo, human; conditions: 250 μg in 50 μL, one drop per day; 3rd day vs first day; n=12
Protocol: Twelve healthy subjects, 6 males and 6 females, were selected to evaluate the safety and tolerability of PnPP-19. PnPP-19 were applied as one eye drop per day (with 250 μg of peptide in 50 μL saline (0.5%)) for 7 days, in one eye, while vehicle (the formulation without the peptide) was applied in the contralateral eye. The eye were randomized in a double-blind way to each intervention.
The safety was analyzed by an ophthalmologist thought a slit lamp in conjunction with a biomiscrscope to examine the anterior and posterior segment of the eye. This procedure was performed in both eyes, in each subject, in the days 1, 2, 3, 4 and 7 of the treatment.
The tolerability was analyzed thought a daily tolerability questionnaire. […] One patient reported mild headache, that last minutes.
IOP was measured with a non-contact tonometer before and 1,2,4 6 and 24 hours after the instillations of PnPP-19 or vehicle.

[6] = tested on: model of optical nerve crushing; conditions: not HA-induced glaucoma; cited from earlier work
[7] = 80 μg/20 μl once a day for 7 days after ischemia, day 7, mean ± SD
[8] = 80 μg/20 μl once a day for 7 days before ischemia, 1 day after ischemia, mean ± SD

Ac-GERRQYFWIAWYKLANSKK-NH2 (N-terminus and C-terminus assumed) [PnPP-19, Gly Glu Arg Arg Gln Tyr Phe Trp Ile Ala Trp Tyr Lys Leu Ala Asn Ser Lys Lys]
time for which IOP reduction was maintained ([1]; 80 μg/20 μL topical single dose): up to 6 hours
% of IOP reduction (Δ) ([1]; 2 hours): 40%
IOP after single dose ([1]; 2 hours): 19.08±2.29 mmHg
% of IOP reduction (Δ) ([1]; 4 hours): 36%
IOP after single dose ([1]; 4 hours): 18.20±2 mmHg
% of IOP reduction (Δ) ([1]; 5 hours): 45%
IOP after single dose ([1]; 5 hours): 17.16±2.13 mmHg
time for which IOP lowering was maintained ([2]; 80 μg/20 μL one eye drop): 24 h
IOP ([2]; 80 μg/20 μL one eye drop, 24 hours after instillation, n=6): 22.9±3.6 mmHg
Histologic damage of optic nerve vs untreated glaucoma group ([2]; 80 μg/eye): reduced this histologic damage
GCL number [3, 7]: 31.75±3.5 cells per 200 μm
Thickness Entire retina [3, 7]: 174.66±19.66 μm
Thickness INL [3, 7]: 31.82±3.14 μm
Thickness ONL [3, 7]: 47.39±1.93 μm
Retinal histology ([3]; post-treatment, 80 μg/eye, hematoxylin-eosin): reduces the histological damage caused by retinal ischemia
GCL cell number [4, 8]: 28.25 ± 4.50 cells per 200 μm
Thickness Entire retina [4, 8]: 157.12±8.43 μm
Thickness INL [4, 8]: 28.31 ± 1.16 μm
Thickness ONL [4, 8]: 39.51 ± 5.80 μm
Thickness of INL and ONL, statistical comparison ([4]; pre-treatment): not statistically different neither from the healthy group nor from the ischemic/untreated group
Retinal histology ([4]; pre-treatment, 80 μg/eye, hematoxylin-eosin): no degeneration, pyknotic nuclei or disorganization of the cells; also recorded: avoids the histological damage caused by retinal ischemia
Overall retina thickness, reduced compared to the healthy group ([4]; pre-treatment, not statistically significant): around 17%
Overall retina thickness, higher compared to ischemic/untreated group ([4]; pre-treatment, p<0.05): 11%
nitrite production in eye tissues [5]: 48.70+/−1.19 nmol/mg of protein
IOP, non-contact tonometer (healthy subjects): statistically lower than the IOP of the first day; also recorded: decreases the IOP in humans

Cc1ccc(C(=O)OCc2ccc([C@@H](CN)C(=O)Nc3ccc4cnccc4c3)cc2)c(C)c1 [Netarsudil]
Average IOP reduction (%) [6]: 23* %

— patent US20210060125A1, “METHOD AND USE OF PnPP-19 FOR PREVENTING AND TREATING EYE DISEASES” (priority 2019, published 2021)
